From US20220064250A1 (AKSTON BIOSCIENCES, published 2022) come the findings set out here.

Protein sequences, listed by entry. Tags and fused reporters are not part of them. Residues count along the entry.
UniProt P06213, residues 28-1382: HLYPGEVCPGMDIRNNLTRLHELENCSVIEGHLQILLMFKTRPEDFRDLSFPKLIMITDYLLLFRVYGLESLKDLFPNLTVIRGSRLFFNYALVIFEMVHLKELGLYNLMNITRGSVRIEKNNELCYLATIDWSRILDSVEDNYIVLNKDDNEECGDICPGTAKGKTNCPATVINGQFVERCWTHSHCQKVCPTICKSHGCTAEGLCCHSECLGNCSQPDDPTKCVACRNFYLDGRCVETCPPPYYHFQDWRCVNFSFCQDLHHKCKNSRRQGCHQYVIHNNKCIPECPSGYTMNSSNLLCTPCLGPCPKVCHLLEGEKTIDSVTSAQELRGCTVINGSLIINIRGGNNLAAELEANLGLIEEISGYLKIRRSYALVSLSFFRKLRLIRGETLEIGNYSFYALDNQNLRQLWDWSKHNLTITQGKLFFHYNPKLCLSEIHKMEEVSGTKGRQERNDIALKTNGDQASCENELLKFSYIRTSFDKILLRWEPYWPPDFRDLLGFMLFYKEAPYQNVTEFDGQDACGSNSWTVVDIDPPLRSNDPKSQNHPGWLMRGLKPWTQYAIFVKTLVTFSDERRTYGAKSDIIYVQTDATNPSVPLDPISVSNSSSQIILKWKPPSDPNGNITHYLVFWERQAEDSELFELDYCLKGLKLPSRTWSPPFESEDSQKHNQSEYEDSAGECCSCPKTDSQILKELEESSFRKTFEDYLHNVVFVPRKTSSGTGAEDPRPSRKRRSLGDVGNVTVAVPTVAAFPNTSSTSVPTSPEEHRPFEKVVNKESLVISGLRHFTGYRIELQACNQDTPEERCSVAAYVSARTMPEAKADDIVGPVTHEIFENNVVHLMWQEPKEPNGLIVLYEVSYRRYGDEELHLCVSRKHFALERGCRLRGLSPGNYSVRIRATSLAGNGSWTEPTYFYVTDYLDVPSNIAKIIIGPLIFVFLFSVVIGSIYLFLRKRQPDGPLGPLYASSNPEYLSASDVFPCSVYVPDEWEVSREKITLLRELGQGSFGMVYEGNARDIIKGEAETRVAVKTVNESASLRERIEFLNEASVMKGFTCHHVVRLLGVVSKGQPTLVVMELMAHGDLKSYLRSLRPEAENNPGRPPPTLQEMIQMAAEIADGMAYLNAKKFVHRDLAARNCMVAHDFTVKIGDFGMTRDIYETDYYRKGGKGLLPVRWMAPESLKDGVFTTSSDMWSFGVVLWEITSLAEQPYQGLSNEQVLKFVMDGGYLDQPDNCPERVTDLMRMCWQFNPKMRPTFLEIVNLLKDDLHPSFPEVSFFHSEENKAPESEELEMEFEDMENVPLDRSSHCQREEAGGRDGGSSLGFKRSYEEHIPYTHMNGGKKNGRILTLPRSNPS

These are yes or no findings as the source states them, for the method shown. Some results given as binding are weak or reduced against the parent protein; the word gives no strength. Sequences can lack the tags named with a protein.

This assay deals with human insulin receptor on human IM-9 cells (human) (UniProt P06213). The assay is described as follows: IM-9 insulin receptor competition assay.

B1: insulin-Fc fusion protein of SEQ ID NO: 51 (insulin polypeptide SEQ ID NO: 16, linker SEQ ID NO: 25, canine IgGB Fc fragment with des hinge D and cNg-K, i.e. … (Fc fusion)
chain: FVNQHLCGSDLVEALALVCGERGFFYTDPTGGGPRRGIVEQCCHSICSLYQLENYCNGGGGAGGGGCPKCPAPEMLGGPSVFIFPPKPKDTLLIARTPEVTCVVVDLDPEDPEVQISWFVDGKQMQTAKTQPREEQFKGTYRVVSVLPIGHQDWLKGKQFTCKVNNKALPSPIERTISKARGQAHQPSVYVLPPSREELSKNTVSLTCLIKDFFPPDIDVEWQSNGQQEPESKYRTTPPQLDEDGSYFLYSKLSVDKSRWQRGDTFICAVMHEALHNHYTQESLSHSPG
notes: Non-glycosylated homodimer made in HEK293 cells; also called cNg-NB138-K
As for B1, the binding entry is on record as “binds”.

B2: insulin-Fc fusion protein of SEQ ID NO: 47 (insulin polypeptide SEQ ID NO: 16, linker SEQ ID NO: 25, canine IgGB Fc fragment with cNg-S) (Fc fusion)
chain: FVNQHLCGSDLVEALALVCGERGFFYTDPTGGGPRRGIVEQCCHSICSLYQLENYCNGGGGAGGGGDCPKCPAPEMLGGPSVFIFPPKPKDTLLIARTPEVTCVVVDLDPEDPEVQISWFVDGKQMQTAKTQPREEQFSGTYRVVSVLPIGHQDWLKGKQFTCKVNNKALPSPIERTISKARGQAHQPSVYVLPPSREELSKNTVSLTCLIKDFFPPDIDVEWQSNGQQEPESKYRTTPPQLDEDGSYFLYSKLSVDKSRWQRGDTFICAVMHEALHNHYTQESLSHSPG
notes: Non-glycosylated homodimer made in HEK293 cells; also called cNg-NB139-S
Regarding B2, the binding entry is reported as “binds”.
